For experiment [1], the target named is T1, Forkhead box M1 (FOXM1) (human (endogenous in H1299)) (UniProt Q08050).
T1 sequence: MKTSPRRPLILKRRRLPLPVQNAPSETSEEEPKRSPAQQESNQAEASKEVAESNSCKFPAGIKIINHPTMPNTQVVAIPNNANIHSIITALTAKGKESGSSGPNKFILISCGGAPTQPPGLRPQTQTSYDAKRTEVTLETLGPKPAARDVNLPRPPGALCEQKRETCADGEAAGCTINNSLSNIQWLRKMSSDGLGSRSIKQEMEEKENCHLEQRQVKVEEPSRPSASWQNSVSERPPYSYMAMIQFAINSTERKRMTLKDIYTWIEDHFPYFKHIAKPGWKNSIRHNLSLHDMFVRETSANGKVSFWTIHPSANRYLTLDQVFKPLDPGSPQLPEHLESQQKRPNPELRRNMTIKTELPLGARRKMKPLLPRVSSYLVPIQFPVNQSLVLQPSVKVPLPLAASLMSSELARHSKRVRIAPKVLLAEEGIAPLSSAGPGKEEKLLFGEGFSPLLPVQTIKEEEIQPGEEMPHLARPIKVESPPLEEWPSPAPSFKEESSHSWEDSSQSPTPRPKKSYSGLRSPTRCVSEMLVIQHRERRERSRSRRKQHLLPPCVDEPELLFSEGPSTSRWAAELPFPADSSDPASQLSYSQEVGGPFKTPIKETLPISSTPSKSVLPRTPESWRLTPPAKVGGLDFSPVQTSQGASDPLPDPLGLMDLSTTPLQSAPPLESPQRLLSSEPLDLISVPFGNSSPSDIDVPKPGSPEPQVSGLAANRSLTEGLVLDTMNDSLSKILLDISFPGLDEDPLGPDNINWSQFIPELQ
Kind of experiment: co-IP; endogenous proteins; cells lysed with cell X-Lysis buffer; IgG, FOXM1 or HMGA1 antibody with protein A/G agarose beads, overnight at 4 °C; eluted by boiling in SDS sample buffer, Western blot. In general terms: In western blotting, separated proteins are transferred to a membrane and probed.

Amino acid sequences for entries named in this document (tags omitted).
UniProt P17096: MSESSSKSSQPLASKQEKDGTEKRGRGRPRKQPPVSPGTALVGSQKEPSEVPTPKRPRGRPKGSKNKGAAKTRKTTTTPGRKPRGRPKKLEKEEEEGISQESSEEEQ

Experiment [2] deals with high-mobility group AT-Hook 1 (HMGA1) (human (endogenous in H1299)) (UniProt P17096). Described as above.

These are yes or no findings as the source states them, for the method shown. In cells and extracts the contact can be indirect. Some binding calls cover weakened binding; strength is not graded here.

The results in this text go back to publication PMC10223534.

Take “high-mobility group AT-Hook 1 (HMGA1) (from UniProt P17096 1-107)”: the binding entry in experiment [1] was “binds”.

B1: Forkhead box M1 (FOXM1) (protein, UniProt Q08050 1-763)
chain: T1 sequence
Consider B1, for which the binding entry in experiment [2] is given as “binds”.
